We go through 5 compounds from PMC8228323, “Biodegradation of L-Valine Alkyl Ester Ibuprofenates by Bacterial Cultures” (Materials, 2021).

Data set [1] has as its system active sludge (bacterial cultures). Kind of data set: Biodegradation in the mineral medium by CO2 production (aerobic, active sludge). To be noted: for Phase of degradation: Degradation phase (degradation level) / Phase of degradation: Degradation phase (time) / Phase of degradation: Lag phase (degradation level) / Phase of degradation: Lag phase (time) / Phase of degradation: Plateau phase (degradation level) / Phase of degradation: Plateau phase (time): 28-day (672 h) test; for Time to reach 10% degradation (end of lag phase): adaptation of microorganisms in the lag phase; for Qualitative assessment of aerobic biodegradability (Readily / Poorly biodegradable) / Maximum level (degree) of biodegradation after 28 days: after 28 days; for Maximum level (degree) of biodegradation after 28 days: CO2 released, mean ± SD; for Biodegradation after 3 cycles of tests: mean ± SD (n = 6).

In another data set the test system is active sludge. The following applies: OECD, cited from earlier work; for Maximum level of biodegradation: after 28 days.

Molecules are shown by their SMILES.

In the case of `CC(C)Cc1ccc(C(C)C(=O)O)cc1.CCCCCCCCOC(=O)[C@@H](N)C(C)C` [[ValOOct][IBU]], in data set [1] (active sludge), the “Phase of degradation: Degradation phase (degradation level)” value is on record as 4–35%. Moreover, in data set [1] (active sludge), the “Phase of degradation: Degradation phase (time)” value was 37 to 524 h. In addition, the “Phase of degradation: Lag phase (degradation level)” value in data set [1] (active sludge) is on record as 0–4%. Moreover, in data set [1] (active sludge), the “Phase of degradation: Lag phase (time)” value lay in the range of 0 to 37 h. The “Phase of degradation: Plateau phase (degradation level)” value in data set [1] (active sludge) is listed as 35–39%. Further, the “Phase of degradation: Plateau phase (time)” value in data set [1] (active sludge) was in the range of 524 to 672 h. Also, in data set [1], the “Time to reach 10% degradation (end of lag phase)” value was 37 h. Besides, the “Qualitative assessment of aerobic biodegradability (Readily / Poorly biodegradable)” value in data set [1] is “Poorly”. Besides, the “Maximum level (degree) of biodegradation after 28 days” value in data set [1] is 39.0%. For the same compound, the “Biodegradation after 3 cycles of tests” value in data set [1] (time 0 days) is 0 ± 3.60%; in data set [1] (time 1 days), 3 ± 1.92%; in data set [1] (time 2 days), 5 ± 1.77%; in data set [1] (time 6 days) it was 13 ± 1.23%; in data set [1] (time 7 days), 14 ± 1.27%; in data set [1] (time 9 days), 16 ± 5.43%. The “Biodegradation after 3 cycles of tests” value in data set [1] (time 13 days) is on record as 26 ± 3.83%; in data set [1] (time 14 days) it was 31 ± 2.70%; in data set [1] (time 16 days), 35 ± 3.31%; in data set [1] (time 17 days), 36 ± 5.28%; in data set [1] (time 22 days) it was 37 ± 5.07%; in data set [1] (time 23 days), 37 ± 6.74%. Moreover, the “Biodegradation after 3 cycles of tests” value in data set [1] (time 27 days) stood at 37 ± 6.65%; in data set [1] (time 28 days) it was 39 ± 5.43%.

For the compound `CC(C)Cc1ccc(C(C)C(=O)O)cc1` (racemic) [(R,S)-ibuprofen], the Start of degradation entry with active sludge is reported as “started only after five days of incubation”.

With `CCCCCCCCCCCCOS(=O)(=O)[O-].[Na+]` [SDS, sodium dodecyl sulfate, reference compound], the “Phase of degradation: Degradation phase (degradation level)” value in data set [1] (active sludge) is 9–78%. Moreover, the “Phase of degradation: Degradation phase (time)” value in data set [1] (active sludge) is 15 to 537 h. Also, the “Phase of degradation: Lag phase (degradation level)” value in data set [1] (active sludge) is 0–9%. Besides, the “Phase of degradation: Lag phase (time)” value in data set [1] (active sludge) was in the range of 0 to 15 h. Moreover, the “Phase of degradation: Plateau phase (degradation level)” value in data set [1] (active sludge) is 78–87%. Moreover, in data set [1] (active sludge), the “Phase of degradation: Plateau phase (time)” value was 537 to 672 h. Also, the “Classification of biodegradability (in words)” value in data set [1] (active sludge, 28 days) is given as “easily biodegradable”. In addition, the “Time to reach 10% degradation (end of lag phase)” value in data set [1] came to 15 h. For the same compound, in data set [1], the “Qualitative assessment of aerobic biodegradability (Readily / Poorly biodegradable)” value is “Readily”. For the same compound, the “Maximum level (degree) of biodegradation after 28 days” value in data set [1] amounted to 86.8%. The “Biodegradation after 3 cycles of tests” value in data set [1] (time 0 days) amounted to 1 ± 1.50%; in data set [1] (time 1 days), 12 ± 8.91%; in data set [1] (time 2 days), 28 ± 10.24%; in data set [1] (time 6 days) it was 49 ± 2.87%; in data set [1] (time 7 days), 52 ± 5.06%; in data set [1] (time 9 days) it was 56 ± 3.70%. Moreover, the “Biodegradation after 3 cycles of tests” value turned out to be 62 ± 3.11% in data set [1] (time 13 days); 67 ± 2.89% in data set [1] (time 14 days); 71 ± 2.22% in data set [1] (time 16 days); 77 ± 4.19% in data set [1] (time 17 days); 80 ± 6.29% in data set [1] (time 22 days); 80 ± 6.50% in data set [1] (time 23 days). Moreover, the “Biodegradation after 3 cycles of tests” value in data set [1] (time 27 days) is recorded as 84 ± 8.85%; in data set [1] (time 28 days), 87 ± 8.54%.

Regarding `CC(C)Cc1ccc([C@H](C)C(=O)O)cc1` [(S)-ibuprofen], in the data set on active sludge, the “Maximum level of biodegradation” value is reported as 50%.

On to `CC(C)Cc1ccc([C@@H](C)C(=O)O)cc1` [(R)-ibuprofen], for which the “Maximum level of biodegradation” value with active sludge is given as 68%.
